From article PMC7819943, “Rice protein-binding microarrays: a tool to detect cis-acting elements near promoter regions in rice”
This is one part of the list.

Amino acid sequences for entries named in this document (tags omitted).
UniProt Q0JBA9, entry or part of it: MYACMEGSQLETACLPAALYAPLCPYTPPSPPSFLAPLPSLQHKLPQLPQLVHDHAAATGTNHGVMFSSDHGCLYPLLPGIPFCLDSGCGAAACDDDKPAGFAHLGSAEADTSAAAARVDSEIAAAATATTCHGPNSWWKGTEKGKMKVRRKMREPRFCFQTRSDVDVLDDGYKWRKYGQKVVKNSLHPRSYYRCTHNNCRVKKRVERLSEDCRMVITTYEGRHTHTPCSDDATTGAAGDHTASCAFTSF

molecular target: OsWRKY34 (Oryza sativa, UniProt Q0JBA9 1-250); experiment: protein-binding microarray (RPBM); PBS, 2% BSA, 51.3 ng/ul salmon testes DNA, 50 uM zinc acetate, 200 nM TF, 25 C, 1 h; high values mean tight binding; conditions: protein: recombinant; tags: N-terminal polyhistidine and DsRed monomer fusion (pET32a); label: CyDye5-dUTP incorporated in the synthesized complementary strand; 3' TTTTT single-stranded linker to array surface; dsDNA, one strand shown
In short: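 For the binding signal, per-feature fluorescence intensity was read in arbitrary units on an Axon 4000B scanner. Before scanning, a 2% BSA-blocked custom Agilent array made double-stranded with Cy5-dUTP was washed after 1 h at 25 °C with 200 nM protein and 50 µM zinc acetate. The proteins were Ni–NTA-purified transcription factors with N-terminal polyhistidine and DsRed fusions, expressed in E. coli BL21-CodonPlus.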

| Sequence | binding signal |
| --- | --- |
| CACTTTATTTTTGAAAATTCGGGTGGGTAAGCTGGTGACTCGGAGTCACCTAGTGCAG | 19200 fluorescence intensity (a.u.) |
| TCTGTTTGACATTTCCGAGGATTCTGATTATGCTCATGCTCGGAGTCACCTAGTGCAG | 8800 fluorescence intensity (a.u.) |
| CGATTGCCATTGTTCGTGTGTTTTTTCTTGTCTCTTTCCGCGGAGTCACCTAGTGCAG | 11000 fluorescence intensity (a.u.) |
| GTTTCTTTTTCAGCATTGGCTTTTAAGTCACCGAGAACACCGGAGTCACCTAGTGCAG | 8240 fluorescence intensity (a.u.) |
| GGTAGTGGTGAGAAGAATCAAGGAGTGCCCGATATTTTTACGGAGTCACCTAGTGCAG | 8020 fluorescence intensity (a.u.) |
| AATTTACACGTAAACTATGTAATTAGTTTTTTTTCACATTCGGAGTCACCTAGTGCAG | 8670 fluorescence intensity (a.u.) |
| CCAGTTTTTGTTTTTCTTCATTTTGCTGTATGAACCTCGTCGGAGTCACCTAGTGCAG | 10400 fluorescence intensity (a.u.) |
| ACGACTCCTTCACCACTTAAGTAATTGATTTTCTGGCGCGCGGAGTCACCTAGTGCAG | 9060 fluorescence intensity (a.u.) |
| GAGGAAGGTTGATGTATACAGCTTTGGAATTGTCTTGTGGCGGAGTCACCTAGTGCAG | 8070 fluorescence intensity (a.u.) |
| CCCATTCTAGATATTAACTACTAATCTGACTCTATTTTTTCGGAGTCACCTAGTGCAG | 8880 fluorescence intensity (a.u.) |
| CACCATCCCTGGGCCACATCCTATTTTGCCCGTTCGTGCTCGGAGTCACCTAGTGCAG | 9240 fluorescence intensity (a.u.) |
| CCCCGCCTAATACCGTCGCCGATATAACCAACCAGTCTAACGGAGTCACCTAGTGCAG | 8820 fluorescence intensity (a.u.) |
| ACGTTGATTAGTTAGTACTAACCTACTCCTACGTGTTAACCGGAGTCACCTAGTGCAG | 8130 fluorescence intensity (a.u.) |
| CCCCAGGCGCTCACCCGCCACATCCGCTCCGCCTGCCTGCCGGAGTCACCTAGTGCAG | 9030 fluorescence intensity (a.u.) |
| TCCTTTGATCGTGTCGTGCCAAGCTGGCCCATCGTGCTAACGGAGTCACCTAGTGCAG | 9410 fluorescence intensity (a.u.) |
| CTCGACGCTCAGCTCCGCTCCTGTTCCGGCGCCGGCGCCGCGGAGTCACCTAGTGCAG | 11100 fluorescence intensity (a.u.) |
| ACGTATTGCCTATAGGCGGAGGGGTGGTGGCGGATGAGTCCGGAGTCACCTAGTGCAG | 12600 fluorescence intensity (a.u.) |
| GTCATCTCCTCCTCATCTTCTTGCTCTGCTCTGCTTCTTTCGGAGTCACCTAGTGCAG | 10000 fluorescence intensity (a.u.) |
| TATCACTGTACACACTTCGTAATCACCTGGTGCAATGTACCGGAGTCACCTAGTGCAG | 8490 fluorescence intensity (a.u.) |
| GGACACGGATATCAGGGTTTGTCTTTTTTTTTTTTTTTTTCGGAGTCACCTAGTGCAG | 8320 fluorescence intensity (a.u.) |
| TCTTCATTCTGTGCTGTGATTCCTTCTCTCACTCTTTTTTCGGAGTCACCTAGTGCAG | 16400 fluorescence intensity (a.u.) |

| Sequence | binding signal |
| --- | --- |
| TTTGAGTTTCATTAATTCATTGATCGTATTTGATGTGGACCGGAGTCACCTAGTGCAG | 8280 fluorescence intensity (a.u.) |
| ATGTTATTATATTTTATTCCGAATTCTAGCGATTTATGTACGGAGTCACCTAGTGCAG | 8130 fluorescence intensity (a.u.) |
| CATGTGTTTACTGGGGTGGTTGTTGTAACAAAATTGAGTACGGAGTCACCTAGTGCAG | 9360 fluorescence intensity (a.u.) |
| TTCAACCTTGGTCACAGGTATGCTTTCCGTCCACGTATTCCGGAGTCACCTAGTGCAG | 8050 fluorescence intensity (a.u.) |
| ACACCGCGATGTCGCTGTTCATCCACTGTTTGTGAATTGTCGGAGTCACCTAGTGCAG | 8230 fluorescence intensity (a.u.) |
| AGTTTGTGTGTGTAGGAAAGTTTTGATGTGATGAAAAAGTCGGAGTCACCTAGTGCAG | 8680 fluorescence intensity (a.u.) |
| CTCTGCCTGCCCTGCTTCTTGCCCACCACCACCTGTGTCCCGGAGTCACCTAGTGCAG | 9420 fluorescence intensity (a.u.) |
| GACGTGGCACATATGTGGCTGATTTGACTCGGTCTTCATCCGGAGTCACCTAGTGCAG | 8440 fluorescence intensity (a.u.) |
| GGTGCTCTCCAGTCTCTCTCCTGCTCTCCACCCACACAGCCGGAGTCACCTAGTGCAG | 9720 fluorescence intensity (a.u.) |
| GTCCCACATGGTTTATTATTTTTTCGGATCAAATTGCCACCGGAGTCACCTAGTGCAG | 9650 fluorescence intensity (a.u.) |
| ACTATTTAATTAGCTACTTGTCTTATTGACTATTTTCCAACGGAGTCACCTAGTGCAG | 9620 fluorescence intensity (a.u.) |
| TATCTGCATATTTGACACCCGCGGCGCTGCGCTATAAAGACGGAGTCACCTAGTGCAG | 8180 fluorescence intensity (a.u.) |
| TCTTCGTCTACCTCTGTCATGTGCCTGTATCGTACACGCTCGGAGTCACCTAGTGCAG | 8210 fluorescence intensity (a.u.) |
| TCAGATTCTCTCTGCTTGCATTGTGTGTACGCATGTTTTTCGGAGTCACCTAGTGCAG | 9850 fluorescence intensity (a.u.) |
| AACATCGGTATTTAACCTAATCGGCTGCCTTCTATTGACGCGGAGTCACCTAGTGCAG | 8650 fluorescence intensity (a.u.) |
| TCCATTCTCGTGCTTTTCAAACTACTAAACGTGTGTTTTTCGGAGTCACCTAGTGCAG | 10300 fluorescence intensity (a.u.) |
| GGGAGGGGATGTGCTTCATGATGGACCGCGGCGGCGACCGCGGAGTCACCTAGTGCAG | 14700 fluorescence intensity (a.u.) |
| AAGCATTCCTCCCTCCCATCCACCACCCGCCTCCGCGCGCCGGAGTCACCTAGTGCAG | 8160 fluorescence intensity (a.u.) |
| CATGTTCATCCTCATTTGACTTGACAATATTATTTCGCCACGGAGTCACCTAGTGCAG | 9240 fluorescence intensity (a.u.) |
| TACTTTCGGATAGCTGGTATTCCTTGGTTGTCTCGGAAAACGGAGTCACCTAGTGCAG | 10000 fluorescence intensity (a.u.) |
| CTGCTGCGCTCTCTCCCCGCGCGCGCGCGCGCCTCCCTCCCGGAGTCACCTAGTGCAG | 8470 fluorescence intensity (a.u.) |
